Reference: paper PMC10053881 (Pharmaceutics, 2023)
The match of structure and compound is tentative.

The chains behind the UniProt entries cited, without tags or fusion partners.
UniProt P30874, whole entry: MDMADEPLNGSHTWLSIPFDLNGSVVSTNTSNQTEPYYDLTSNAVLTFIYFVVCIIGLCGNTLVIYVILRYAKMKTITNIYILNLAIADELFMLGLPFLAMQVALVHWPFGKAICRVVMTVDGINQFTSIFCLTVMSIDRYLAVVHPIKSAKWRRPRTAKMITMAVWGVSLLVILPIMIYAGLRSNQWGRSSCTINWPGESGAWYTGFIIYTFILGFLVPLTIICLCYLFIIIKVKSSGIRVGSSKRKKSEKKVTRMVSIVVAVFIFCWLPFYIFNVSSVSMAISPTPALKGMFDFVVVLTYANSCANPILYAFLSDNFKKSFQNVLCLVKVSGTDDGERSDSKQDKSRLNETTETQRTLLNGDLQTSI

Molecular target: human SST2R (Homo sapiens, UniProt P30874)
Experiment: Competition binding against [125I-Tyr25]LTT-SS28 in HEK293-SST2R cell membranes
Conditions: displacement of [125I-Tyr25]LTT-SS28, HEK293-SST2R cell membranes, 1 h 22 °C; mean ± sd
Procedure: Samples in triplicate for each concentration point were incubated for 1 h at 22 °C in an Incubator-Orbital Shaker unit, (MPM Instr. SrI). Competition was abruptly stopped by the addition of ice-cold washing buffer and fast filtration through glass fiber filters (Whatman GF/B, pre-soaked for 2 h in a 1% polyethyleneimine (PEI) aqueous solution). This operation was contacted semi-automatically on a Brandel Cell Harvester (Adi Hassel Ingenieur Büro, Munich, Germany). They were subsequently rinsed with ice-cold washing buffer (10 mM HEPES pH 7.4, 150 mM NaCl). Filters were collected in plastic tubes and their radioactivity content was measured in an automated multi-sample well-type γ-counter (NaI(Tl) 3'' crystal-equipped Canberra Packard Cobra^TM Quantum U5003/1, Auto-Gamma® instrument). Nonlinear regression for a one-site model was applied to determine the half-maximal inhibitory concentration (IC50) values using the PRISM^TM 6.0 GraphPad software (San Diego, CA, USA). Results from three independent experiments in triplicate were calculated and presented as mean IC50 ± standard deviation (sd) values.

- IC50: 1.69 nM
SMILES: C[C@@H](O)[C@@H]1NC(=O)[C@H](CCCCN)NC(=O)[C@@H](Cc2ccc(NC(N)=O)cc2)NC(=O)[C@H](Cc2ccncc2)NC(=O)[C@H](NC(=O)[C@H](Cc2ccc(Cl)cc2)NC(=O)CCCCC2(N(CC(=O)O)CC(=O)O)CN(CC(=O)O)CCN(CC(=O)O)C2)CSSC[C@@H](C(=O)N[C@H](Cc2ccc(O)cc2)C(N)=O)NC1=O
